Experimental data reported in US8501722B2, “Methods and compositions for treating bacterial infection” (priority 2009, dated 2013).
“And” between values parts separate entries of the source, which are not always exact repeats. Identical values can stand only once. For some assays here: The name of at least one read-out is uncertain. For some assays here: At least one structure is not confirmed: it was looked up by name or label, or the drawing left a doubt.

Legend:
SK(+)GAS = experiment: GAS growth by OD600 nm of culture; type: cell-based, Group A Streptococcus
SKKanGAS = experiment: Growth-based turbidometric screen, SKKanGAS under kanamycin (kanamycin resistance gene under ska promoter); type: cell-based, Group A Streptococcus; conditions: positive control, 5 μg/ml, 384-well plate
Excerpt: A GAS strain was generated to have kanamycin resistance gene under the control of ski promoter to be used to screen for SK inhibitors. A transgenic GAS has been generated in SK(+)GAS host so that kanamycin resistance gene is driven by ska promoter in an extrachromosomal plasmid. The engineered GAS strain (SKKanGAS) was also kanamycin resistant. This kanamycin resistance gene in SK(−)GAS strain is within the omega-Km2 element whose promoter is independent of ska promoter (Khil et al., J. Infect. Dis. 2003; 188:497-505; Ringdahl et al., J. Biol. Chem. 1998; 273:6424-6430). As a result, SK(−)GAS can serve as a control in the screen for SK promoter to weed out compounds that inhibit GAS growth or interfere with kanamycin resistance protein function. […] A cutoff criterion was set to select compounds that can inhibit 50% growth in SKKanGAS while inhibiting less than 10% growth in SK(−)GAS. A total of 95 compounds met this criterion. […]
Only SKKanGAS is used for screening in the primary screening. […] Growth of bacteria in each well is measured by absorbance at 600 nm. […]
Once hit compounds have been identified by the primary screening, they are applied to dose response assays with both SKKanGAS and SK(−)GAS stains. […] The absorbance is measured at 600 nm. pIC50 of growth inhibition of each hit compound is then determined. […]

| SMILES | GAS Growth (% control) (SK(+)GAS; compound conc. 2.5 μg/ml) | GAS Growth (% control) (SK(+)GAS; compound conc. 5 μg/ml) | GAS Growth (% control) (SK(+)GAS; compound conc. 10 μg/ml) | GAS Growth (% control) (SK(+)GAS; compound conc. 40 μg/ml) | GAS Growth (% control) (SK(+)GAS; compound conc. 60 μg/ml) | GAS Growth (% control) (SK(+)GAS; compound conc. 0.1 μg/ml) | GAS Growth (% control) (SK(+)GAS; compound conc. 20 μg/ml) | GAS Growth (% control) (SK(+)GAS; compound conc. 70 μg/ml) | GAS Growth (% control) (SK(+)GAS; compound conc. 0.3 μg/ml) | GAS Growth (% control) (SK(+)GAS; compound conc. 1 μg/ml) | GAS Growth (% control) (SK(+)GAS; compound conc. 3 μg/ml) | GAS Growth (% control) (SK(+)GAS; compound conc. 30 μg/ml) | GAS Growth (% control) (SK(+)GAS; compound conc. 50 μg/ml) | SKKanGAS growth inhibition (SKKanGAS) |
| --- | --- | --- | --- | --- | --- | --- | --- | --- | --- | --- | --- | --- | --- | --- |
| C=CCn1c(SCCOC)nc2c(c1=O)C1(CCCCC1)Cc1ccccc1-2 [CCG-102493, 3-allyl-2-(2-methoxyethylthio)-3H-spiro[benzo[h]quinazoline-5,1′-cyclohexan]-4(6H)-one] | 104 % control | 102 % control and 103 % control | 100 % control | 120 % control and 95 % control and 116 % control | 131 % control |  |  |  |  |  |  |  |  |  |
| C=CCn1c(SCCOC)nc2c(c1=O)C(C)(C)c1ccccc1-2 [CCG-203572, 3-allyl-2-(2-methoxyethylthio)-5,5-dimethyl-3H-indeno[1,2-d]pyrimidin-4(5H)-one] | 100 % control | 101 % control and 100 % control |  | 96 % control and 95 % control |  | 99 % control | 100 % control and 101 % control | 86 % control |  |  |  |  |  |  |
| C=CCn1c(SCC#N)nc2c(c1=O)C(C)(C)Cc1ccccc1-2 [1S-22207] | 103 % control and 101 % control and 98 % control | 96 % control and 101 % control and 106 % control and 103 % control and 105 % control | 101 % control | 122 % control and 106 % control and 116 % control and 109 % control and 117 % control |  | 101 % control and 99 % control and 97 % control | 111 % control and 98 % control and 106 % control and 101 % control | 135 % control and 129 % control and 137 % control | 103 % control and 102 % control and 97 % control |  |  |  |  |  |
| C=CCn1c(SCCCC)nc2c(c1=O)C1(CCCCC1)Cc1ccccc1-2 [compound 575096] |  |  | 103 % control and 92 % control and 97 % control and 88 % control and 98 % control | 72 % control and 111 % control and 100 % control and 92 % control |  | 100 % control and 96 % control | 103 % control and 93 % control and 89 % control |  | 99 % control | 98 % control | 102 % control and 98 % control | 104 % control and 102 % control and 79 % control and 97 % control and 90 % control and 98 % control | 73 % control and 103 % control and 93 % control |  |
| CN(C)[C@@H]1C(O)=C(C(N)=O)C(=O)[C@@]2(O)C(O)=C3C(=O)c4c(O)cccc4[C@@](C)(O)[C@H]3C[C@@H]12 [tetracycline, reference compound] |  |  |  |  |  |  |  |  |  |  |  |  |  | completely inhibits SKKanGAS growth |
| C=CCn1c(SCCOC)nc2c(c1=O)C(C)(C)Cc1cc(OC)ccc1-2 [CCG-203576, 3-allyl-8-methoxy-2-(2-methoxyethylthio)-5,5-dimethyl-5,6-dihydrobenzo[h]quinazolin-4(3H)-one] |  | 101 % control and 102 % control |  | 104 % control and 103 % control |  | 98 % control | 100 % control and 101 % control | 114 % control | 100 % control |  |  |  |  |  |
| C=CCn1c(SCCOC)nc2c(c1=O)C(C)(C)Cc1ccccc1-2 [CCG-102624, 3-Allyl-2-(2-methoxyethylthio)-5,5-dimethyl-5,6-dihydrobenzo[h]quinazolin-4(3H)-one] |  | 105 % control |  | 100 % control |  |  | 101 % control |  |  |  |  |  |  |  |
